Patent US20210188909A1 (SANFORD BURNHAM PREBYS MEDICAL DISCOVERY INSTITUTE, published 2021)
Results are given in words; binding and its absence hold for the method and conditions named. Some entries that bind do so weakly or less than the wild type.

T1: recombinant 6x-His-tagged p32 protein (gC1qR/p32) (UniProt Q07021 74-282)
T1 construct: Predominantly (>97%) a trimer by sedimentation velocity; also called gC1q/p32 receptor; recombinant p32
T1 sequence (looked up): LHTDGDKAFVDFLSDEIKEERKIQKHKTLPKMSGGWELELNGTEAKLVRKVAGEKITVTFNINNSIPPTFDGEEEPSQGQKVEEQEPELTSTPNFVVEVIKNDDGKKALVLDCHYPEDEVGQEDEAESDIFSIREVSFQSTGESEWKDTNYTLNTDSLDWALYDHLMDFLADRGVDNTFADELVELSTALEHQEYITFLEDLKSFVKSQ

T2: ligand-binding b1b2 domain of the cell and tissue penetration receptor NRP-1 (UniProt O14786)
T2 sequence (looked up): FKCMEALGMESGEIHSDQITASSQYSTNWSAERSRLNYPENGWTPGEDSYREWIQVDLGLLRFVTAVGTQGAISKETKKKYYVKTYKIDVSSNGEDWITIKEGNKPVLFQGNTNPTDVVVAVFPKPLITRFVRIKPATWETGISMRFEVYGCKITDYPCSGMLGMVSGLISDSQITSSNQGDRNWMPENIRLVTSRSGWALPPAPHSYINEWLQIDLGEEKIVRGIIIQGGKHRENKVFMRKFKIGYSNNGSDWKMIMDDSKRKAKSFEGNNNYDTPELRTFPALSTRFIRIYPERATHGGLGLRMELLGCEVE

T3: NRP-1 (control protein in the fluorescence polarization assay) (UniProt O14786)
T3 sequence (looked up): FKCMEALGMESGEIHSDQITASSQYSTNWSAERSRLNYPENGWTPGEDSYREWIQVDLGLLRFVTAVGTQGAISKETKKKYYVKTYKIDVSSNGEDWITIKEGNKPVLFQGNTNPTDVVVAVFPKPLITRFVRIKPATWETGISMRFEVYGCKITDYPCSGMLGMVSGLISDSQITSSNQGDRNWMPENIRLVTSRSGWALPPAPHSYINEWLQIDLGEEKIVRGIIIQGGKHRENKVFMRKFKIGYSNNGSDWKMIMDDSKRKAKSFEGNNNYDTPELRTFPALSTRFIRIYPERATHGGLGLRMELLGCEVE

B1: T7 phage displaying SGVSRDR (SEQ ID NO: 191) (peptide)
peptide: SGVSRDR
notes: also called phage clone selected on NRP-1 b1b2 domain
B2: T7 phage displaying GRGGRSRKLAAALE (SEQ ID NO: 161) (peptide)
peptide: GRGGRSRKLAAALE
notes: the C-terminal KLAAALE element is encoded by the phage genomic DNA; also called RGXRS-displaying phage
B3: T7 phage displaying SRLGRMR (SEQ ID NO: 193) (peptide)
peptide: SRLGRMR
notes: as for B1
B4: T7 phage displaying SMNEVRKR (SEQ ID NO: 192) (peptide)
peptide: SMNEVRKR
notes: as for B1
B5: T7 phage displaying RMRRIDR (SEQ ID NO: 190) (peptide)
peptide: RMRRIDR
notes: as for B1

How the values were obtained:
[1] = target: T1, recombinant 6x-His-tagged p32 protein …; test: T7 phage clone binding to p32-coated magnetic beads
[2] = target: T1, recombinant 6x-His-tagged p32 protein …; test: phage clones on p32-coated magnetic microbeads (FIG. 10)
[3] = target: T2, ligand-binding b1b2 domain of the cell and tissue penetration receptor NRP-1; test: T7 phage clone binding to immobilized NRP-1 b1b2 domain (FIG. 3)
[4] = target: T3, NRP-1 (control protein in the fluorescence polarization assay); test: fluorescence polarization assay (FIG. 4B)
[5] = target: T1, recombinant 6x-His-tagged p32 protein …; test: T7 phage clone binding to immobilized p32 (FIG. 3)
[6] = target: T1, recombinant 6x-His-tagged p32 protein …; test: T7 phage on p32-coated magnetic beads, before trypsin treatment (FIG. 9)
[7] = target: T1, recombinant 6x-His-tagged p32 protein …; test: T7 phage binding to immobilized p32

Row | Binder | binding [1] | other results
1 | CKRGNRSVC [T7 phage displaying … (SEQ ID NO: 178)] | binds | 
2 | CTRGSRSKC [T7 phage displaying … (SEQ ID NO: 177)] | binds | 
3 | AKRGARSTA [T7 phage displaying the TT1 variant with cysteines replaced by alanines, … (SEQ ID NO: 2)] |  | binding [2]: binds
4 | CQRGTRSRC [T7 phage displaying … (SEQ ID NO: 182)] | binds | 
5 | B1 |  | binding [3]: binds
6 | CVRGGRARC [T7 phage displaying … (SEQ ID NO: 183)] | binds | 
7 | B2 | binds | 
8 | B3 |  | binding [3]: binds
9 | CARGARTKC [T7 phage displaying … (SEQ ID NO: 176)] | binds | 
10 | RPARPAR [synthetic RPARPAR peptide (SEQ ID NO: 14)] |  | binding [4]: binds
11 | CKRGSRSSC [T7 phage displaying … (SEQ ID NO: 181)] | binds | 
12 | CARGKRSLC [T7 phage displaying … (SEQ ID NO: 184)] | binds | 
13 | B4 |  | binding [3]: binds
14 | B5 |  | binding [3]: binds
15 | RKRGGRS (also called RGXRS-displaying phage) [T7 phage displaying RKRGGRS (SEQ ID NO: 166)] | binds | 
16 | CKRGARSTC [T7 phage displaying the TT1 peptide … (SEQ ID NO: 3)] | binds | binding [5]: binds; binding [6]: binds
17 | CGNKRTRGC [T7 phage displaying the LyP-1 peptide … (SEQ ID NO: 7)] |  | binding [7]: binds
